Consider 28 targets from the supplement of paper PMC10849652.

Chains of the proteins cited; added tags and fusions are not shown. Lines headed by an entry give the natural chain unless they say otherwise; changes in a name come on top.
UniProt Q9H0H0, whole entry, looked up: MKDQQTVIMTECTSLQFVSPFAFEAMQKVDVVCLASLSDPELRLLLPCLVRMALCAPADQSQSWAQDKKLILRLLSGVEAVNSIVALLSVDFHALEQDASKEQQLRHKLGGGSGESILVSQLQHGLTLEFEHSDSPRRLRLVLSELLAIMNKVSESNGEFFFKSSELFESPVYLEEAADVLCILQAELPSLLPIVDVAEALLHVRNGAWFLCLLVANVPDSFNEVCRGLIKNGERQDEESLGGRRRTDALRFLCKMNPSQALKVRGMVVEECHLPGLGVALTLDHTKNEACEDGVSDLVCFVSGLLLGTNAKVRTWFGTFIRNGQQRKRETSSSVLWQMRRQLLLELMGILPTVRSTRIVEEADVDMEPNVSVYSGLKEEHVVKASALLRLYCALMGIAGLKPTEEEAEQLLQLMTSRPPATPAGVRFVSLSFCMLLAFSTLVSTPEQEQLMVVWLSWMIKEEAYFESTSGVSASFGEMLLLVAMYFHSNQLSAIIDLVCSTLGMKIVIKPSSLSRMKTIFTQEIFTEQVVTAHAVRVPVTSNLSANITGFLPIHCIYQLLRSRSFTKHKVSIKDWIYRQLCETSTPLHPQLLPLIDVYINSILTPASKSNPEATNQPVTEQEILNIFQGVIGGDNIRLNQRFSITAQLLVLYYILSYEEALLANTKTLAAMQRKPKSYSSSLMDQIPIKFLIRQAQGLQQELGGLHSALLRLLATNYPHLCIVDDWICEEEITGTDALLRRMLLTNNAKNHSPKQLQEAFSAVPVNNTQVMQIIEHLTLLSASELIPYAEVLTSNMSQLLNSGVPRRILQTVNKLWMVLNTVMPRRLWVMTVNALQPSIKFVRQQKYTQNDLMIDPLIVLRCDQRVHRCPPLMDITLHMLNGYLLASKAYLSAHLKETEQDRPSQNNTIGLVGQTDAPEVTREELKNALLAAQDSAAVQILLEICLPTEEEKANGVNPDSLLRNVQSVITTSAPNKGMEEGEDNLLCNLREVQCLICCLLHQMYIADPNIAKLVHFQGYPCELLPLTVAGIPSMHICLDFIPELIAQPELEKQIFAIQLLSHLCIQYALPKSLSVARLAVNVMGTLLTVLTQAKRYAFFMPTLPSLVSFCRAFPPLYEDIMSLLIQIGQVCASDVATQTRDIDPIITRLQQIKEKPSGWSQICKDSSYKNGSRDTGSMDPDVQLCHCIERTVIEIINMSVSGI
UniProt Q96AB3: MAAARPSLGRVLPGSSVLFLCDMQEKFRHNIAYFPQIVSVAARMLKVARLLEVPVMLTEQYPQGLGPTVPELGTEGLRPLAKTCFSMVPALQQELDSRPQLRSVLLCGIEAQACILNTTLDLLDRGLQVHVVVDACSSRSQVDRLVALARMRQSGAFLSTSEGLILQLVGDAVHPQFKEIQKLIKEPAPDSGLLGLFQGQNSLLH
UniProt Q9BUE6: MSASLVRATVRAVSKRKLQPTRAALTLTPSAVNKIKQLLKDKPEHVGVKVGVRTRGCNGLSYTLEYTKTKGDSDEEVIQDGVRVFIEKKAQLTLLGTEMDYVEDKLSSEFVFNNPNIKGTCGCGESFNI
UniProt Q14573, whole entry, looked up: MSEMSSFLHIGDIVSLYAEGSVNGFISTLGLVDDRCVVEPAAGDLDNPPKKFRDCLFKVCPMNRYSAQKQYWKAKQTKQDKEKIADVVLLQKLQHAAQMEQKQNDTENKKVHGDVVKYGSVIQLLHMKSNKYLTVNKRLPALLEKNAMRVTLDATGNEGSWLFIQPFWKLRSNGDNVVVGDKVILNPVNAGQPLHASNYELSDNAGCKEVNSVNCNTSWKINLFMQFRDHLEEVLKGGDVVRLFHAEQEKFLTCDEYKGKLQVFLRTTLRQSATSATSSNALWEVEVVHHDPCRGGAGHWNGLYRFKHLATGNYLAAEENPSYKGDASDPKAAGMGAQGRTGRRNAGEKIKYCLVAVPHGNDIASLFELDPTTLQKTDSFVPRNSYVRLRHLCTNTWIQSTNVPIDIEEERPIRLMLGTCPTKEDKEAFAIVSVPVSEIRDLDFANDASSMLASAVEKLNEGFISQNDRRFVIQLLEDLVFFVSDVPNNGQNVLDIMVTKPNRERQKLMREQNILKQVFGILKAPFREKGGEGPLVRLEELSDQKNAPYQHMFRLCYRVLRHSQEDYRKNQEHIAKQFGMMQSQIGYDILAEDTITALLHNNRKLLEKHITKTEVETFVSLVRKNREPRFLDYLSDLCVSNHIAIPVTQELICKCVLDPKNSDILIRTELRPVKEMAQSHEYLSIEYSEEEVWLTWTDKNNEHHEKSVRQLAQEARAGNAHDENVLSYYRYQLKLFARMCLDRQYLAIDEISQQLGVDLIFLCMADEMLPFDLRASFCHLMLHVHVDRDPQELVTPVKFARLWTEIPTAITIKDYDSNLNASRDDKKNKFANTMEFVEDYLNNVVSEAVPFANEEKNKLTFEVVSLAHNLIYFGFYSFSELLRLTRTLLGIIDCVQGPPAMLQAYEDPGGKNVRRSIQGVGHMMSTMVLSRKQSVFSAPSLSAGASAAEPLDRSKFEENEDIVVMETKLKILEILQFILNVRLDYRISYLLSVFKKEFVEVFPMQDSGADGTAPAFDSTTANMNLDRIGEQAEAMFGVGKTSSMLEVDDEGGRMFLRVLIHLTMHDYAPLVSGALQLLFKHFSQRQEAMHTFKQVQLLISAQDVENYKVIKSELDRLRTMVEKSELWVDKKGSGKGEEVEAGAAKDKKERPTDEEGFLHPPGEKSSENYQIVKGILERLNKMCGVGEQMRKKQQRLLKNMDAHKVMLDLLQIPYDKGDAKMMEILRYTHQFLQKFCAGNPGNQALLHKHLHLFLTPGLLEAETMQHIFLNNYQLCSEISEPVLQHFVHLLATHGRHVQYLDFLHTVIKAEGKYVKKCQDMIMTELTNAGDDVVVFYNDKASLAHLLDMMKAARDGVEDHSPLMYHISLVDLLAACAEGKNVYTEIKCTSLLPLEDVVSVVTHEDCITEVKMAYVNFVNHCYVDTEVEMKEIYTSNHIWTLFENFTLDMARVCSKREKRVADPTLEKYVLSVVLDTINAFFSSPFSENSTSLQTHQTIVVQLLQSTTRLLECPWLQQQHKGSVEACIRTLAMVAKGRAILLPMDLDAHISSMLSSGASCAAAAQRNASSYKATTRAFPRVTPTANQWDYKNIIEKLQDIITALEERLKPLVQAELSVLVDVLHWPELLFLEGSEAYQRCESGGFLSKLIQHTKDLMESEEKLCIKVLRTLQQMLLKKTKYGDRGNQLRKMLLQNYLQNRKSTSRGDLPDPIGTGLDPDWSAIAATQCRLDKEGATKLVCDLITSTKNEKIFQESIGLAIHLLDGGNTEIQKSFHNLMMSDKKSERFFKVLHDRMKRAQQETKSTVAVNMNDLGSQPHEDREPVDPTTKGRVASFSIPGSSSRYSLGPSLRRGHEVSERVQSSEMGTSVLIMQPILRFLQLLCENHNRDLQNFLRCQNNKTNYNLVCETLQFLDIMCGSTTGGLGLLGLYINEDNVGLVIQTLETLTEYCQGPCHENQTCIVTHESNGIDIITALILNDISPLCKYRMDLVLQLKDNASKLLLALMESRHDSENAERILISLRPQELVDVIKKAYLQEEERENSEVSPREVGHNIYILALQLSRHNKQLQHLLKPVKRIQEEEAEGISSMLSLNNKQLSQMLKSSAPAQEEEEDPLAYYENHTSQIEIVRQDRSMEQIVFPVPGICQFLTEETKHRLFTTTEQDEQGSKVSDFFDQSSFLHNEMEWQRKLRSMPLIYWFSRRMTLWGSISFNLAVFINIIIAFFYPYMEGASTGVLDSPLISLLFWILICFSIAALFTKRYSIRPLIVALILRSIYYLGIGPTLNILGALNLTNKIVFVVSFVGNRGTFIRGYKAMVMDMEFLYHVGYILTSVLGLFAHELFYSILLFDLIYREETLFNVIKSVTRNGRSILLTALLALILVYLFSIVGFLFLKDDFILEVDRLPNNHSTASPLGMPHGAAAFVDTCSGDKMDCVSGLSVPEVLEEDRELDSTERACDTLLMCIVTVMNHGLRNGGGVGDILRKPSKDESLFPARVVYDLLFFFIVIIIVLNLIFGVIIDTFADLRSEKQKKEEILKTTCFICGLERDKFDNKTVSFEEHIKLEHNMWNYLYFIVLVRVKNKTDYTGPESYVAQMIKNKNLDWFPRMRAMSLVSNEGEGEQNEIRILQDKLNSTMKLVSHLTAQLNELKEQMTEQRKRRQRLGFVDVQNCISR
UniProt P48735: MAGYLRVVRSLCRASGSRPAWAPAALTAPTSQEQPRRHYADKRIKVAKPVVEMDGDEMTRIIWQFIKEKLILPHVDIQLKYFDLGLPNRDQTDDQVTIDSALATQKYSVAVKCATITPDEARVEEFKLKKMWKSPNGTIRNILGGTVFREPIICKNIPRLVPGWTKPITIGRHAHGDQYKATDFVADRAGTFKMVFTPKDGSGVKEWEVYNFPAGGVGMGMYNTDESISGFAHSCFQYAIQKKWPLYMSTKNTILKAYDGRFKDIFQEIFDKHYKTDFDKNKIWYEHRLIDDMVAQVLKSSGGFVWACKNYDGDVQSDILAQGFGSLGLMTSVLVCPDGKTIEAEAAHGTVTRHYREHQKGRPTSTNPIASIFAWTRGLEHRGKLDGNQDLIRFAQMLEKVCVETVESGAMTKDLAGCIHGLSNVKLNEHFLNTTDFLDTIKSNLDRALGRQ
UniProt Q9NPH3, whole entry, looked up: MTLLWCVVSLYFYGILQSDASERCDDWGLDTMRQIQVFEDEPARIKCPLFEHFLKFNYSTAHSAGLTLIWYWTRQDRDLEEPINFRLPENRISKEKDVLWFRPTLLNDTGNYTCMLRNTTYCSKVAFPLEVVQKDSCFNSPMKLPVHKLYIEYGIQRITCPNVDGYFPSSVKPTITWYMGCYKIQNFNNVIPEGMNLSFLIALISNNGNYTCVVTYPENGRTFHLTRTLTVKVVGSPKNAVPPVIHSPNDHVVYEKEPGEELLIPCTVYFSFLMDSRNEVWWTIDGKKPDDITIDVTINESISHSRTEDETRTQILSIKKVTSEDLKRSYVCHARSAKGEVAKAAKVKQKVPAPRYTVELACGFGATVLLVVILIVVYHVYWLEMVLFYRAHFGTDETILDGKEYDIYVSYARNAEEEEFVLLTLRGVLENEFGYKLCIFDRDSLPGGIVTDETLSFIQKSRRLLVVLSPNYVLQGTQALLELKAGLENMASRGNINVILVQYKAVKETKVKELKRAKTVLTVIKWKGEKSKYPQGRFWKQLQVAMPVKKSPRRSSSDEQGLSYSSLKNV
UniProt O14732: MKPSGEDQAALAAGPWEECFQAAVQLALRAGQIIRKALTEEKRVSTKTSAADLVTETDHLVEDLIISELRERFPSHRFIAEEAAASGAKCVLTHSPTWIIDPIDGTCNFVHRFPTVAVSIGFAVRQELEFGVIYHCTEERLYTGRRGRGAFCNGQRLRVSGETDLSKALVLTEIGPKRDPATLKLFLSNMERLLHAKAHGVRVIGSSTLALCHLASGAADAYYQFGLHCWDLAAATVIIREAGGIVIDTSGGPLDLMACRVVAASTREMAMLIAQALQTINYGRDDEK
UniProt Q7Z5L9: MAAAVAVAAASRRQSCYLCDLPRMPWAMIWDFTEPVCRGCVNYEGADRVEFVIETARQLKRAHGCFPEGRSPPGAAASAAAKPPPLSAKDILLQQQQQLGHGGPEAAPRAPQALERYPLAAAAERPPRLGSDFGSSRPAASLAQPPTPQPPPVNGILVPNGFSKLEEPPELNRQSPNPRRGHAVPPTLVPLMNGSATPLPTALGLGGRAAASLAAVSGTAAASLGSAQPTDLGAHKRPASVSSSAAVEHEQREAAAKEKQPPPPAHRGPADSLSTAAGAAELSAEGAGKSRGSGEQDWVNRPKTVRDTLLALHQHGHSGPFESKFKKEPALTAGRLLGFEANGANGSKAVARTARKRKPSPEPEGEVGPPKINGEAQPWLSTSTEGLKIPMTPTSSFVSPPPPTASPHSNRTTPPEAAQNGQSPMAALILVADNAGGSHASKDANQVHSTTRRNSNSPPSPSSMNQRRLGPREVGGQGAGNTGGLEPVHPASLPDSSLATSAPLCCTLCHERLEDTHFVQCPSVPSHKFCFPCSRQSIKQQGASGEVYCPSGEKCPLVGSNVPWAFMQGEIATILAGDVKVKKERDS
UniProt Q9UK53: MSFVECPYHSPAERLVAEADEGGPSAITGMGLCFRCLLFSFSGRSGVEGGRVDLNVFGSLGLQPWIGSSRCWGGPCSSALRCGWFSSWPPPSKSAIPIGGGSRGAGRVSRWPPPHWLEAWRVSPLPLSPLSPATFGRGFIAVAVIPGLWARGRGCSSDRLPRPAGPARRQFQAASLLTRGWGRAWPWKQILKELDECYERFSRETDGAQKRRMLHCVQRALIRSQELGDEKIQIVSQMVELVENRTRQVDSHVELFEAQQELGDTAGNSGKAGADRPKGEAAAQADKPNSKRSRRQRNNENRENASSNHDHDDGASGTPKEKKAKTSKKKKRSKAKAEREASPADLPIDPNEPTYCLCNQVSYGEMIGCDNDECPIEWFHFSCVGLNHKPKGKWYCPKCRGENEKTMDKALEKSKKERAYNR

The list shows a part of the results.

Compound in this experiment: c1cn2cc(-c3ccc4cn[nH]c4c3)nc(Nc3ccc(N4CCOCC4)cc3)c2n1 [entospletinib]
As to the kind of experiment: log2 fold change, soluble protein after heating vs DMSO (PISA); higher = thermal stabilisation; K562 cells, 10 uM, 30 min; active = over 0.2 and 3.5 SD of the protein, either way, in both replicates (recomputed). The procedure, abridged:
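Thermal stability values are relative to control samples and come from duplicates. They are expressed as log2 fold changes. For measurement, K562 cells (2×10^6 cells/mL) received 10 μM compound for 30 min, and aliquots were heated for 3 min over 48°C-58°C, pooled, and extracted at 4°C in PBS with 0.5% NP-40. Soluble protein, the supernatant after 21,000xg for 90 min, was quantified by TMTpro 16plex LC-MS/MS with equalised channel sums.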
On to IGKC (UniProt P01834), for which the log2 fold change was inactive: -0.117.

With IGLL5 (UniProt B9A064), the log2 fold change was inactive: 0.006.

Take IMPDH1 isoform 6 (UniProt P20839): the log2 fold change is inactive: -0.011.

As to ISY1 isoform 1 (UniProt Q9ULR0), the log2 fold change is inactive: 0.029. Take INTS2 (UniProt Q9H0H0): the log2 fold change was inactive: 0.127. Turning to IKBKB (UniProt O14920), the log2 fold change is inactive: 0.179. To IKBIP (UniProt Q70UQ0) belongs inactive: -0.005. Turning to ISOC2 (UniProt Q96AB3), the log2 fold change was inactive: 0.065. ISCA1 isoform 2 (UniProt Q9BUE6): the log2 fold change was inactive: 0.016.

In the case of ITPR3 (UniProt Q14573), the log2 fold change was inactive: -0.156.

Regarding ITPK1 (UniProt Q13572), the log2 fold change is inactive: -0.039. The figure for INPP4A (UniProt Q96PE3) is inactive: -0.015. The figure for IDH2 (UniProt P48735) is inactive: -0.012.

For the target IST1 isoform 5 (UniProt P53990), the log2 fold change is inactive: -0.009.

Take IL1RAP isoform 5 (UniProt Q9NPH3): the log2 fold change is inactive: -0.051. To IMPA1 isoform 3 (UniProt P29218) belongs inactive: 0.01. To INAFM2 (UniProt P0DMQ5) belongs inactive: -0.177; to INTS4 (UniProt Q96HW7), inactive: 0.009. The figure for IMPA2 (UniProt O14732) is inactive: 0.089; for IKBKG isoform 2 (UniProt Q9Y6K9) it is inactive: 0.022. Regarding IPO4 isoform 2 (UniProt Q8TEX9), the log2 fold change is inactive: 0.068.

Turning to IRF2BP2 (UniProt Q7Z5L9), the log2 fold change is inactive: 0.019. To INTS10 (UniProt Q9NVR2) belongs inactive: -0.118; to IKBIP isoform 4 (UniProt Q70UQ0), inactive: 0.016. For ITPA (UniProt Q9BY32), the log2 fold change was inactive: 0.063. On to IRF2BP1 (UniProt Q8IU81), for which the log2 fold change is inactive: 0.046. The figure for IGHA1 (UniProt P01876) is inactive: -0.19; for ING1 (UniProt Q9UK53) it is inactive: -0.069.
